# Measured values: PubChem BioAssay AID493014 (National Center for Advancing Translational Sciences (NCATS), 2011)
# The list shows a part of the results. Further columns of the screen follow, without active or inactive calls. Compounds called inactive in the main read-out are mostly missing here. Words in brackets tell the shape of the fitted curve; partial curves, single points and poor fits give uncertain potencies.
# Assay: qHTS Assay to Find Inhibitors of Chronic Active B-Cell Receptor Signaling
# Details: ABC-DLBCL IkBa-CBG/CBR reporter, luminescence ratio (green luciferase fused to IkBa over red control in TMD8 lymphoma cells), 4 h
# How it was run: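 Doxycycline induced both beetle luciferases in TMD8 lymphoma cells; IKK-driven degradation limits the IkappaBalpha-fused green signal, while red luminescence normalises for cell number and nonspecific effects. Compounds tested up to 46 uM, 4 hrs.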
# [1] = measured here: CBR red luminescence, cell number
# [2] = measured here: IkBa-CBG green luminescence
Compound,AC50 [1],AC50 [2]
O=C(CSc1ncnc2ccccc12)c1ccco1,"8.91 µM [falling, partial curve]",–
CNC(=O)NC(=O)CSc1nc2cc(C(=O)OC)ccc2c(=O)n1-c1ccccc1,"3.98 µM [rising, partial curve, poor fit]",–
COc1cccc(NC(=O)c2cnn(-c3ccccc3)c2C)c1,"11.2 µM [falling, partial curve]",–
CCOc1ccc(C2c3[nH]c4ccccc4c3C[C@H]3C(=O)N(C4CCN(Cc5ccccc5)CC4)CC(=O)N23)cc1OC (stereo partly specified),"15.8 µM [falling, single point]",–
COC(=O)C(CC(C)C)Oc1ccc2c(C)cc(=O)oc2c1 (stereo unspecified),"0.731 µM [rising, partial curve, poor fit]",–
O=C(CNC(=O)c1ccccc1F)N/N=C/c1ccc2c(c1)OCO2,"4.47 µM [falling, partial curve, poor fit]",–
Nc1ncnc2c1ncn2[C@@H]1O[C@H](CNC(=O)[C@@H]2CCCN2S(=O)(=O)c2ccc(F)cc2)[C@@H](O)[C@H]1O,"29.1 µM [rising, single point]","23.1 µM [falling, partial curve]"
NC(=O)COC(=O)Cc1coc2cc3c(cc12)CCC3,"0.355 µM [falling, partial curve, poor fit]",–
Cc1cc(=O)oc2cc(NC(=O)c3ccccc3Cl)ccc12,"1.58 µM [falling, full curve]",–
CCCCC/C=C/C1=CC(=O)C[C@H](c2ccc3c(c2)OCO3)C1,"16.4 µM [rising, partial curve]",–
C/C(CC(=O)Nc1ccccn1)=N\NC(=O)c1cnccn1,"28.2 µM [falling, single point]",–
O=S(=O)(c1ccc(F)cc1)c1nc(-c2ccccc2F)oc1N1CCCCC1,"1.16 µM [rising, full curve, poor fit]",–
O=C(O)CCN=C1CCc2ccccc2N1,"20.6 µM [falling, single point]",–
O=C(Nc1ccc(Cl)cc1)Nc1csc([N+](=O)[O-])c1,"6.31 µM [rising, single point]",–
Cc1cccc(C)c1NC(=O)CNC(=O)c1ccccc1OCc1ccccc1,"2.06 µM [rising, full curve, poor fit]",–
Cc1cccc(N2CCN(S(=O)(=O)c3c(C)[nH]c(=O)[nH]c3=O)CC2)c1C,"16.4 µM [rising, partial curve, poor fit]",–
Brc1csc2ncccc12,"35.5 µM [rising, single point]",–
COCCn1c(C)cc(C(=O)CSc2nc3ccccc3s2)c1C,"7.31 µM [rising, single point]",–
O=C(CCc1nc2ccccc2c(=O)[nH]1)Nc1cc(Cl)ccc1N1CCCCC1,"7.31 µM [falling, partial curve, poor fit]",–
CN1Cc2c(N3CCOCC3)nc3sc(C(=O)c4ccc(Br)cc4)c(N)c3c2CC1(C)C,"14.1 µM [falling, single point]",–
COc1ccccc1N=C(C)C1=C(O)CC(c2ccccc2)CC1=O (stereo unspecified),"22.4 µM [rising, single point]","22.4 µM [falling, single point]"

Compound,AC50 [1],AC50 [2]
O=C(O)Cc1c(C(=O)O)[nH]c2ccc(C(=O)O)cc12,"10 µM [falling, partial curve]",–
CN(C)CCNC(=O)C1CC(=O)N(c2ccc(F)c(Cl)c2)C1 (stereo unspecified),"1.46 µM [falling, partial curve, poor fit]",–
Cc1ccc(NS(=O)(=O)c2ccc(NC(=O)c3cccs3)cc2)c(C)c1,"20.6 µM [falling, single point]",–
CSc1n[nH]c2nc3c(c(=O)n12)C1(CCCC1)Cc1ccccc1-3,"16.4 µM [falling, partial curve]",–
O=S(=O)(c1cccc(NC(=S)N2CCN(c3ccccc3F)CC2)c1)C(F)F,"25.9 µM [falling, single point]",–
COc1cc(/C=N/Nc2nc3ccccc3[nH]c2=O)ccc1O,"8.91 µM [falling, partial curve]",–
Cc1ccc(NC(=O)Cc2nc(COC(=O)C(C)NS(=O)(=O)c3ccc(C)cc3)cs2)cc1 (stereo unspecified),"29.1 µM [rising, single point]",–
O=C(CNC(=O)c1ccco1)OCc1ccccc1Cl,"14.6 µM [rising, partial curve]",–
COC(=O)COc1ccc(S(=O)(=O)NCc2cccnc2)cc1C,"29.1 µM [rising, single point]",–
COc1ccc2c(c1)c(CC(=O)Nc1ccccc1OC)c(C)n2C(=O)c1ccc(Cl)cc1,"9.2 µM [falling, partial curve, poor fit]",–
O=C(CNC(=O)c1cccs1)OCc1ccc(Br)cc1,"6.31 µM [rising, single point]",–
CCCC(NC(=O)CCc1c(C)c2cc3c4c(oc3c(C)c2oc1=O)CCCC4)C(=O)O (stereo unspecified),"0.562 µM [rising, partial curve, poor fit]",–
CN(C(=O)Nc1ccc(Cl)cc1)n1cnc2ccccc2c1=O,"20 µM [rising, partial curve, poor fit]",–
CCOc1cc(C(=O)Nc2cc(C)ccn2)cc(OCC)c1OCC,"10 µM [falling, partial curve]",–
COc1cccc(S(=O)(=O)NCc2ccc(C(=O)Nc3cccc(Cl)c3)cc2)c1,–,"4.11 µM [rising, partial curve, poor fit]"
C/C(=N\Nc1ccc(Cl)c(C(=O)O)c1)c1ccccn1,"11.2 µM [falling, partial curve]",–
Cc1c([N+](=O)[O-])ccc(S(=O)(=O)N2CCC(C(N)=O)CC2)c1C,"2.06 µM [rising, partial curve, poor fit]",–
CCc1ccc2oc(=O)cc(CN3CCCCC3C)c2c1 (stereo unspecified),"15.8 µM [rising, single point]","35.5 µM [falling, partial curve, poor fit]"
COc1ccc(NC(=S)NCCc2ccccc2)c(OC)c1,"23.1 µM [rising, single point]",–
COc1ccc2c(=O)c3c(=O)n(-c4ccc(C)cc4)c(-c4ccccc4)nc3oc2c1,"12.6 µM [falling, partial curve, poor fit]",–
COc1ccc(CNC(=O)CN(C(=O)CCC(=O)Nc2nccs2)c2ccccc2C)cc1,"20 µM [falling, single point]",–

Compound,AC50 [1],AC50 [2]
Cc1ccc(OCCNC(=O)c2cccc(S(=O)(=O)NCc3ccccc3)c2)cc1,–,"18.4 µM [falling, partial curve, poor fit]"
COC(=O)C(=C/C(C)=C/c1cccnc1)C(=O)OC,"11.2 µM [falling, partial curve, poor fit]",–
CCc1ncc(/C=C2\C(=O)Nc3ccccc32)[nH]1,"35.5 µM [falling, single point]","35.5 µM [rising, partial curve, poor fit]"
Cc1ccsc1/C=C(\CC(=O)O)c1nc2ccccc2o1,"35.5 µM [rising, partial curve, poor fit]",–
O=C(N/N=C/c1ccncc1)c1cc([N+](=O)[O-])cc([N+](=O)[O-])c1O,"1.26 µM [falling, full curve]",–
Cc1cc(NC(=O)C2CC(c3ccc(F)cc3)=NO2)n(-c2ccccc2)n1 (stereo unspecified),"0.731 µM [falling, full curve, poor fit]",–
Cc1cc(F)ccc1NC(=O)CCc1c(C)nn(-c2ccc(N3CCCCC3)nn2)c1C,"6.31 µM [falling, partial curve, poor fit]",–
CC1(C)OC(=O)C(=CNc2ccccc2)C(=O)O1,"15.8 µM [rising, single point]",–
O=C(CN1C(=O)C2CCCCC2C1=O)Nc1nc(-c2ccc(F)cc2)cs1 (stereo unspecified),"8.2 µM [falling, partial curve]",–
N/C(=N\OC(=O)c1ccc(Cl)cc1)c1ccc(Cl)cc1,"1.64 µM [rising, partial curve, poor fit]",–
CCn1cc(NC(=O)CCl)c(C)n1,"17.8 µM [falling, partial curve, poor fit]",–
O=C(NC(=S)Nc1cccc2ncccc12)c1ccccc1,"7.08 µM [falling, partial curve, poor fit]",–
O=C(NC1=NCCS1)c1cc(-c2ccc(F)cc2)nc2ccccc12,"29.1 µM [falling, single point]",–
Cc1nc2ccc(S(=O)(=O)NCC(=O)N3CCCCC3)cc2s1,"20.6 µM [rising, partial curve, poor fit]",–
CC(C)Nc1cc(C(C)(C)C)nc2c(-c3ccccc3)cnn12,"11.2 µM [rising, partial curve, poor fit]",–
O=C1C=C(Nc2ccc(Cl)cc2Cl)CC(c2ccco2)C1 (stereo unspecified),–,"35.5 µM [falling, single point]"
C/C(=N/NC(=O)c1cccs1)c1c(C)[nH]n(-c2nc3ccccc3s2)c1=O,"4.61 µM [falling, full curve]",–
NC(=O)CC(NC(=O)c1ccccc1)c1ccc(NCCOc2ccccc2)c([N+](=O)[O-])c1 (stereo unspecified),"3.55 µM [rising, single point]",–
CCOc1cccc(-c2cc(-c3n[nH]c(=S)n3CC)c3ccccc3n2)c1,"35.5 µM [falling, single point]",–
CN(Cc1ccco1)c1ncnc2ccc(-c3ccc4c(ccn4C)c3)cc12,–,"9.2 µM [falling, partial curve]"
